Data taken from patent US12638438B2, “Screening methods using canine T2R receptors and pet food products and compositions identified using the same” (MARS, INCORPORATED, priority 2015, dated 2026).

Amino acid sequences for entries named in this document (tags omitted). Residues count along the entry.
UniProt A0A8I3SCV7, 1-299: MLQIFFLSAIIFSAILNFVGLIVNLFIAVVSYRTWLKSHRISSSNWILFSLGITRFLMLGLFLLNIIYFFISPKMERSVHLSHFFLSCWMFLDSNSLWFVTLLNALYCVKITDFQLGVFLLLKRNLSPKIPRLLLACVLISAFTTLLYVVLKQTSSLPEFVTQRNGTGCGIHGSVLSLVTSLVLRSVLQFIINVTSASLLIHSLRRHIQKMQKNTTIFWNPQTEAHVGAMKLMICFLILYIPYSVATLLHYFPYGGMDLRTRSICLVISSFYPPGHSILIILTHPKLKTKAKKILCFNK

Target: canine T2R4 (Canis lupus, UniProt A0A8I3SCV7)
Assay: cell-based

## COc1cc2c(c(OC)c1OC)-c1ccc(OC)c(=O)cc1[C@@H](NC(C)=O)CC2 [Colchicine]
  EC50: 2580 ± 167 µM
